Test results: publication PMC4150769
Results are given in words; binding and its absence hold for the method and conditions named. Binding seen in cells or lysates may run through a third protein. Some binding calls cover weakened binding; strength is not graded here.

By UniProt entry, the sequences of proteins in these tests, tags left out.
UniProt Q9UIV1: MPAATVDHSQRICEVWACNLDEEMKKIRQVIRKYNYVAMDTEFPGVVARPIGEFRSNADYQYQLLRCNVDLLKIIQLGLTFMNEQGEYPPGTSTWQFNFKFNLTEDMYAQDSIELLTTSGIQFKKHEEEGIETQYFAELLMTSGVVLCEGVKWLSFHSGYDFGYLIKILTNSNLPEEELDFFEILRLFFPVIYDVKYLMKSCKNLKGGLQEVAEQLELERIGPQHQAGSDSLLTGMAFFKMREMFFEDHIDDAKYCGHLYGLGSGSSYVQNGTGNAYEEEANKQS

Key:
[1] = molecular target: T1, ZFP36L1-SASA mutant (human) (UniProt Q07352); assay: co-IP; as a1, but cells treated with PMA (100 ng/ml, 30 min) before lysis; ZFP36L1 wild type, SASA and ΔC constructs
T1 sequence: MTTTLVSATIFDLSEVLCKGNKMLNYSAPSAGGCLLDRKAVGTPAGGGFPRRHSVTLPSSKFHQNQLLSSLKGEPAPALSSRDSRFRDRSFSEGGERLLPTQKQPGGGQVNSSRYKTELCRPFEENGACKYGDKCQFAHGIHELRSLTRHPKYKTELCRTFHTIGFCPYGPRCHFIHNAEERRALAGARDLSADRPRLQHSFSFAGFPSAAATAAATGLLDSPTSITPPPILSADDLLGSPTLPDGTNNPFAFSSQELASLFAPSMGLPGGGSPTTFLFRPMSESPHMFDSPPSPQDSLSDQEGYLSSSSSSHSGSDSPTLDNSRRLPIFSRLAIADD

ZFP36L2 (human) = molecular target: T2, ZFP36L2 (human) (UniProt P47974); assay: co-IP; Supplementary Figure S5E, legend not shown; ZFP36 or ZFP36L2 and CNOT7, cells without PMA
T2 sequence: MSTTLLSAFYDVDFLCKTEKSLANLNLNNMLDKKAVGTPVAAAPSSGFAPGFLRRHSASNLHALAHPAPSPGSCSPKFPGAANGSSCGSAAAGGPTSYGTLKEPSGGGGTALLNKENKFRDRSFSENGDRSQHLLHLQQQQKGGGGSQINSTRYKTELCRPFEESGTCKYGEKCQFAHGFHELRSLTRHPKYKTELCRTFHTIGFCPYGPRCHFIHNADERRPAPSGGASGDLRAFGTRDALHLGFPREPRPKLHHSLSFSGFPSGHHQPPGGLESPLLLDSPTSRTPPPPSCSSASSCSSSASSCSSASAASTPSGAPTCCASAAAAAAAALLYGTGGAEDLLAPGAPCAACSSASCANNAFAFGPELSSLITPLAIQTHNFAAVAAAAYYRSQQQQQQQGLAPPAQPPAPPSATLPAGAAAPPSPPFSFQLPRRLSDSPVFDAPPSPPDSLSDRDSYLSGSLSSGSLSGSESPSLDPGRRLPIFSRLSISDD

- binding [1]: binds
- binding (ZFP36L2 (human)): binds
Substance: CNOT7 (from UniProt Q9UIV1 1-285)
